The text below walks through data of the supplement of paper PMC6411743.

The chains behind the UniProt entries cited, without tags or fusion partners. Where a name states a change or a piece, a line headed by the entry shows the natural chain unless it says otherwise.
UniProt Q96E11: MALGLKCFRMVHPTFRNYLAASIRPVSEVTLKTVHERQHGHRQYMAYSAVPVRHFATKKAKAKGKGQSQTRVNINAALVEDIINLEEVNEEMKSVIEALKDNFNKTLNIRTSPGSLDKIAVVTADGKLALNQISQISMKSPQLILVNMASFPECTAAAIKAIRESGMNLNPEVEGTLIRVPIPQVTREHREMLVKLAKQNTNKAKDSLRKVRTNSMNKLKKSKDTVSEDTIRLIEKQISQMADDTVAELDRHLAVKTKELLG
UniProt Q96G23: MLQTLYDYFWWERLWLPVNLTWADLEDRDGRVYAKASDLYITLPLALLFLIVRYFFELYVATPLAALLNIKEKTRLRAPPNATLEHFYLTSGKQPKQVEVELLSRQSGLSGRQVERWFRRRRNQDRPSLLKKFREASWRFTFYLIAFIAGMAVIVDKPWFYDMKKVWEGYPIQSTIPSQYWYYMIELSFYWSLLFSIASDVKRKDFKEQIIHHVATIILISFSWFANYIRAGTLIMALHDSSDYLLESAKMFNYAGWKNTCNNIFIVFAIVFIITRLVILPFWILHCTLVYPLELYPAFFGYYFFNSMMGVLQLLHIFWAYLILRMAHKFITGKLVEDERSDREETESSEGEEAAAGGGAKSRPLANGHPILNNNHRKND
UniProt Q8WUH2: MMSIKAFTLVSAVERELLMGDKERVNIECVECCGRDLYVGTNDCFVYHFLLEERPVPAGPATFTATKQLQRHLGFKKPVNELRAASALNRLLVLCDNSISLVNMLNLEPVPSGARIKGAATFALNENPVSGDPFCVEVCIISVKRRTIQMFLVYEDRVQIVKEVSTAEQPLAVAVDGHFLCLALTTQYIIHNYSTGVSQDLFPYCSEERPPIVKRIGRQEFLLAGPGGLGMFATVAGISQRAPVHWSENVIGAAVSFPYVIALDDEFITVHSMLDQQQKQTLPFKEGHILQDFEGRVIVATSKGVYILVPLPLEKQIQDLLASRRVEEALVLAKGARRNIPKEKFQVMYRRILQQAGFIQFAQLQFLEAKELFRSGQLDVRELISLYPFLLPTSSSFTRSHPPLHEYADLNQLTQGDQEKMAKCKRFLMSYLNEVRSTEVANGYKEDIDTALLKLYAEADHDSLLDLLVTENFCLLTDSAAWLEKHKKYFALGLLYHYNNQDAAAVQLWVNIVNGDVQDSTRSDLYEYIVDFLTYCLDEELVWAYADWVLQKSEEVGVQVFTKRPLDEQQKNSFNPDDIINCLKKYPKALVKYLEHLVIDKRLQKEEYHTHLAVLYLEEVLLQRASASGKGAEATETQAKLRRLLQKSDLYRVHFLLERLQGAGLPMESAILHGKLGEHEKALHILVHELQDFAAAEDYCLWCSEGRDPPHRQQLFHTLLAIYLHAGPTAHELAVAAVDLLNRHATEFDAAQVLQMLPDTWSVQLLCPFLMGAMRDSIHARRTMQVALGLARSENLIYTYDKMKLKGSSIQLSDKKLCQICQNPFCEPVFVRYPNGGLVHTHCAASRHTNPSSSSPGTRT
UniProt Q96GD0: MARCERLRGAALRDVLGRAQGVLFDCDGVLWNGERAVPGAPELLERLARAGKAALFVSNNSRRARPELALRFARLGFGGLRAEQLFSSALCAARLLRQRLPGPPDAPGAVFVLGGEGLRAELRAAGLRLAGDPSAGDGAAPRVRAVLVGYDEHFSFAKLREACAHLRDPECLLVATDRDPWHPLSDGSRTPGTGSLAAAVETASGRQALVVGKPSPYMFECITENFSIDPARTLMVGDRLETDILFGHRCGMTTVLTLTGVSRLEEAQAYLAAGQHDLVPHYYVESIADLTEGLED
UniProt Q92575: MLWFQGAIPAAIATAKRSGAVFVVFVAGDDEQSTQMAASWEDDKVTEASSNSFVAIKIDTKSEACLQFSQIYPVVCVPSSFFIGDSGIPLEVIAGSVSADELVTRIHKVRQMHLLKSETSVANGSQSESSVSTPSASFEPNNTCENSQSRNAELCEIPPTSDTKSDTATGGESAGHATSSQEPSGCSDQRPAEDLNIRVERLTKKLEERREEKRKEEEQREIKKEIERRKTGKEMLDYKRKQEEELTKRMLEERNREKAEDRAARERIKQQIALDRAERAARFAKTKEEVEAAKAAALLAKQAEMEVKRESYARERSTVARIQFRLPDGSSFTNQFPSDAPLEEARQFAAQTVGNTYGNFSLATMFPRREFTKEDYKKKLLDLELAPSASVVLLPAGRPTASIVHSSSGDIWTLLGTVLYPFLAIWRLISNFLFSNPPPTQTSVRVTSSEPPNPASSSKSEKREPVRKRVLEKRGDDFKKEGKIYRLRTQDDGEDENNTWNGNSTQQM
UniProt Q96EZ8, whole entry: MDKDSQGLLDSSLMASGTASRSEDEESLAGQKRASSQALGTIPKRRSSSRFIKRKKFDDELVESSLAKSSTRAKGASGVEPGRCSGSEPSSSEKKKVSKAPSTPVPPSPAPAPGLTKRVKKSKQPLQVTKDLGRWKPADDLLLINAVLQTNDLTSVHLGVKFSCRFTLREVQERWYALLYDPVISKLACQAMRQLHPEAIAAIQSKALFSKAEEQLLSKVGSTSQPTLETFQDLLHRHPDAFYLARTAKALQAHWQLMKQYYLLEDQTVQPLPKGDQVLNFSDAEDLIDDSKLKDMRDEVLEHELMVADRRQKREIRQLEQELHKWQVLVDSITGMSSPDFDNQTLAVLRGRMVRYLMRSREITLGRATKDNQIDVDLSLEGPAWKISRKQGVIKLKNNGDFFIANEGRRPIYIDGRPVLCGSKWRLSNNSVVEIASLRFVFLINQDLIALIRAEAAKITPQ
UniProt Q92574: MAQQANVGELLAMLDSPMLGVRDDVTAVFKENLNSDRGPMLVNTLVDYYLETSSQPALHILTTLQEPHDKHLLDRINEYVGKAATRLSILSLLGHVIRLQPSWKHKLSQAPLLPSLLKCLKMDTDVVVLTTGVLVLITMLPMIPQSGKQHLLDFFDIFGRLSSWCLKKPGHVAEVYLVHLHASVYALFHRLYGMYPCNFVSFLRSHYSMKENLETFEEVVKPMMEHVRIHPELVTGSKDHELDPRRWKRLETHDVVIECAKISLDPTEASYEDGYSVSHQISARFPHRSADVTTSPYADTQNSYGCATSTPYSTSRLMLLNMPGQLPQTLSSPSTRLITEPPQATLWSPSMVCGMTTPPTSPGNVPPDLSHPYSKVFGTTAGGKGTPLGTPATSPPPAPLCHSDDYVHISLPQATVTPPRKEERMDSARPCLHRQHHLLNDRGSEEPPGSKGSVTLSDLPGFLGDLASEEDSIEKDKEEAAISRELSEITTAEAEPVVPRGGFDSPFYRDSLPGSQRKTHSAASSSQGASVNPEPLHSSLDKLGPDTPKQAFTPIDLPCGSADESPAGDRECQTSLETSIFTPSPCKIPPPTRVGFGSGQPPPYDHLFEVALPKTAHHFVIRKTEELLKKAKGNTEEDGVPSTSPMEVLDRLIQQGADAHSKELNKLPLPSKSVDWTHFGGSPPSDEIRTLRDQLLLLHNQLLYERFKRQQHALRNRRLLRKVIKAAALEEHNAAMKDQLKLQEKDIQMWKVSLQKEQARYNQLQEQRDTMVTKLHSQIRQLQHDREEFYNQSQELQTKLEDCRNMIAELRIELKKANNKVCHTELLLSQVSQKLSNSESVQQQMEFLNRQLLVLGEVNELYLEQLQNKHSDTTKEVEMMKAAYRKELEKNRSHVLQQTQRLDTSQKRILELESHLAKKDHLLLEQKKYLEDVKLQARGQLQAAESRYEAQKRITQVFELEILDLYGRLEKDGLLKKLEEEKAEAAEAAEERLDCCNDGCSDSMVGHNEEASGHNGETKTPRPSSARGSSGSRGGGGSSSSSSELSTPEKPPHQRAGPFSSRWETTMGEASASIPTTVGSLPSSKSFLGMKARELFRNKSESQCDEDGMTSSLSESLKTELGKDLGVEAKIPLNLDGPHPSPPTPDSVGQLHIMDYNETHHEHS
UniProt Q96AD5: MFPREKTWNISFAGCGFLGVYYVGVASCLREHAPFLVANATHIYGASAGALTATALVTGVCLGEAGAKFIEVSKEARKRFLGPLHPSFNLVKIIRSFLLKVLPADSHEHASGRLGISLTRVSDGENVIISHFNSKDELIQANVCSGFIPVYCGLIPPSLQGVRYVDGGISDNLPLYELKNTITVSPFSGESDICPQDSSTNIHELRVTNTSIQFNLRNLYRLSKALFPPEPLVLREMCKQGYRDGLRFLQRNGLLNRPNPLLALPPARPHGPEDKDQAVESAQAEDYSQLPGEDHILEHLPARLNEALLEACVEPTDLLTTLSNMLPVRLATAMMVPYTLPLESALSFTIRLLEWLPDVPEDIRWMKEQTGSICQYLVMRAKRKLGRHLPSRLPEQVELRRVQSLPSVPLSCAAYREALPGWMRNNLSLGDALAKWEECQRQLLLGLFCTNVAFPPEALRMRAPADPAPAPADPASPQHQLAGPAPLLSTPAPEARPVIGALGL
UniProt Q96DF8: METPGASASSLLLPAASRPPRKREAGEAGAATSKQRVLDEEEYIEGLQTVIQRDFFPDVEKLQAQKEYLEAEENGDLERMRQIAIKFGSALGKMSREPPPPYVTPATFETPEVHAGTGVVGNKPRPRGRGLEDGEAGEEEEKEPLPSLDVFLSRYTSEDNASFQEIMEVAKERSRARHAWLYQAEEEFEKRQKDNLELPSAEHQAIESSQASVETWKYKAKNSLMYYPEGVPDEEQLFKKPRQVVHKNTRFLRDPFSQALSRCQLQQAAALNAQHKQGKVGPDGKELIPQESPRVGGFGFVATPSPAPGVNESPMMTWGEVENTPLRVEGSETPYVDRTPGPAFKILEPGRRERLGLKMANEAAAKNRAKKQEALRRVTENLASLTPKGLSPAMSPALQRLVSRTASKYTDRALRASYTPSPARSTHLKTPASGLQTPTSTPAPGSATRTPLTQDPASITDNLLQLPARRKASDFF
UniProt Q8WWV3: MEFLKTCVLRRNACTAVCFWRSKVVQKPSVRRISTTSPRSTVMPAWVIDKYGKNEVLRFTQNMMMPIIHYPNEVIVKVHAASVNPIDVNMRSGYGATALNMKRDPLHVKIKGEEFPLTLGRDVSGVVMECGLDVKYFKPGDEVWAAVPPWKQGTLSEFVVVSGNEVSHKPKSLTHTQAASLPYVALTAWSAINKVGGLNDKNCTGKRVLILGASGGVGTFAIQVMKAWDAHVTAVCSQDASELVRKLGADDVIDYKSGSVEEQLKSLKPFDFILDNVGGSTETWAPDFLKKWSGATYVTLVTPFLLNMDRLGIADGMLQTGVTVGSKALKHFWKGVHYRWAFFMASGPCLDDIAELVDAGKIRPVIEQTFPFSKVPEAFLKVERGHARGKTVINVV
UniProt Q8WW59: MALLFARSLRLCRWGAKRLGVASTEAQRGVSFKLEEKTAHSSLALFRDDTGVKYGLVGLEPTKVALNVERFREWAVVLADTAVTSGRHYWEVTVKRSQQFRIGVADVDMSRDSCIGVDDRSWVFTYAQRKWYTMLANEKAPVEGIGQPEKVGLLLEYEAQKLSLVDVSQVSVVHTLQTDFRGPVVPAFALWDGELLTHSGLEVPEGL
UniProt Q8WVE0: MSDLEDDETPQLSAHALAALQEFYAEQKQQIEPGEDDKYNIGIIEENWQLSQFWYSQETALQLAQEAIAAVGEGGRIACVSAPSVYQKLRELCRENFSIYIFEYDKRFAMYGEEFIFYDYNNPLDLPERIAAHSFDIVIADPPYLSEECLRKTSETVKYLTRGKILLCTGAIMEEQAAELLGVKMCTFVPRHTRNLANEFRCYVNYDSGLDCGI
UniProt Q969P0: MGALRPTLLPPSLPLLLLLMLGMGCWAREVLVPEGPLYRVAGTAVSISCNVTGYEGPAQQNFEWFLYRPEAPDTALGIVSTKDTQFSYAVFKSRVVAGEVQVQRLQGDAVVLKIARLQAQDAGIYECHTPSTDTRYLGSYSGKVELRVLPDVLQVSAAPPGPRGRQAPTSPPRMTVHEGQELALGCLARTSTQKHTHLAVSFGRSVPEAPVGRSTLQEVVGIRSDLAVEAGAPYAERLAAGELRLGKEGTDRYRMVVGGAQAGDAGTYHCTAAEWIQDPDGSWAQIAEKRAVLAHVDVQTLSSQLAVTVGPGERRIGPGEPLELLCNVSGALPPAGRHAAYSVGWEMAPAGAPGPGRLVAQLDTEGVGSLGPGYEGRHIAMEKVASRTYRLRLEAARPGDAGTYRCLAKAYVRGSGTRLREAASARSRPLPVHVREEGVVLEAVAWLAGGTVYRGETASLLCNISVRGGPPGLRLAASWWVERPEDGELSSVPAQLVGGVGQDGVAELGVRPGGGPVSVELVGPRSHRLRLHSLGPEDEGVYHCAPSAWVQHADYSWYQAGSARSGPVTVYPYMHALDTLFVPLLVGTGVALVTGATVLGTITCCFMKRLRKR

± gives the standard deviation of the averaged measurements. The list shows a part of the results.

Compound in the assay: Nc1nc2c(ncn2[C@@H]2O[C@H](COP(=O)(O)OP(=O)(O)OP(=O)(O)O)[C@@H](O)[C@H]2O)c(=O)[nH]1 [guanosine triphosphate]
Kind of assay: NP40-soluble protein abundance relative to vehicle (solubility fold change) (ratio); higher = more soluble protein in presence of GTP. The essentials: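 Jurkat crude lysate (Dounce-homogenised) was treated with eight concentrations from 0.1 to 10 mM for 10 min at room temperature, then 3 min at 37 °C. It was solubilised with 0.8% NP40 and benzonase (60 min, 4 °C) and ultracentrifuged, and the supernatant was TMT-labelled for LC-MS/MS. Intensities were vsn-normalised, and the value is the fold change against the NP40-processed vehicle per replicate, from three independent experiments.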

Consider UniProt Q96E11 and related entries, for which the NP40-soluble protein abundance (concentration: 0.1mM) was found to be 0.902 ± 0.075; the NP40-soluble protein abundance (concentration: 0.5mM) was 0.8646 ± 0.0015; the NP40-soluble protein abundance (concentration: 1mM) was 0.995 ± 0.11; the NP40-soluble protein abundance (concentration: 2mM) was 1.01 ± 0.042; the NP40-soluble protein abundance (concentration: 4mM) was determined as 0.913 ± 0.066; the NP40-soluble protein abundance (concentration: 6mM) is 0.961 ± 0.045. In addition, the NP40-soluble protein abundance (concentration: 8mM) turned out to be 0.891 ± 0.12 and the NP40-soluble protein abundance (concentration: 10mM) stood at 1.04 ± 0.18.

UniProt Q96G23: the NP40-soluble protein abundance was 0.969 ± 0.084 (concentration: 0.1mM); 0.989 ± 0.13 (concentration: 0.5mM); 0.946 ± 0.11 (concentration: 1mM); 0.935 ± 0.098 (concentration: 2mM); 0.965 ± 0.084 (concentration: 4mM); 0.941 ± 0.12 (concentration: 6mM). The NP40-soluble protein abundance (concentration: 8mM) came out at 0.968 ± 0.12 and the NP40-soluble protein abundance (concentration: 10mM) was 0.935 ± 0.096.

TGFBRAP1 (UniProt Q8WUH2): the NP40-soluble protein abundance is, setting by setting: (concentration: 0.1mM) 1.17 ± 0.16; (concentration: 0.5mM) 1.12 ± 0.1; (concentration: 1mM) 1.12 ± 0.12; (concentration: 2mM) 1.13 ± 0.13; (concentration: 4mM) 1.07 ± 0.1; (concentration: 6mM) 1.07 ± 0.12. For the same target, the NP40-soluble protein abundance is, setting by setting: (concentration: 8mM) 1.03 ± 0.19; (concentration: 10mM) 1.07 ± 0.09.

With UniProt Q96GD0 and related entries, the NP40-soluble protein abundance worked out at 0.991 ± 0.027 (concentration: 0.1mM); 0.969 ± 0.064 (concentration: 0.5mM); 0.857 ± 0.046 (concentration: 1mM); 0.886 ± 0.06 (concentration: 2mM); 0.878 ± 0.044 (concentration: 4mM); 0.85 ± 0.033 (concentration: 6mM). The NP40-soluble protein abundance (concentration: 8mM) amounted to 0.816 ± 0.067 and the NP40-soluble protein abundance (concentration: 10mM) is 0.823 ± 0.041.

In the case of UBXN4 (UniProt Q92575), the NP40-soluble protein abundance by setting is: (concentration: 0.1mM) 0.946 ± 0.085; (concentration: 0.5mM) 0.95 ± 0.089; (concentration: 1mM) 0.906 ± 0.058; (concentration: 2mM) 0.881 ± 0.059; (concentration: 4mM) 0.876 ± 0.067; (concentration: 6mM) 0.904 ± 0.088. Moreover, the NP40-soluble protein abundance is, setting by setting: (concentration: 8mM) 0.858 ± 0.062; (concentration: 10mM) 0.848 ± 0.088.

As to UniProt Q96EZ8 and related entries, the NP40-soluble protein abundance runs as follows: (concentration: 0.1mM) 1.12 ± 0.05; (concentration: 0.5mM) 1.17 ± 0.13; (concentration: 1mM) 1.17 ± 0.13; (concentration: 2mM) 1.23 ± 0.069; (concentration: 4mM) 1.3 ± 0.16; (concentration: 6mM) 1.36 ± 0.13. Further, the NP40-soluble protein abundance (concentration: 8mM) turned out to be 1.39 ± 0.2 and the NP40-soluble protein abundance (concentration: 10mM) amounted to 1.37 ± 0.17.

For the target UniProt Q96II8 and related entries, the NP40-soluble protein abundance is, setting by setting: (concentration: 0.1mM) 0.997 ± 0.053; (concentration: 0.5mM) 1.04 ± 0.025; (concentration: 1mM) 1.05 ± 0.016; (concentration: 2mM) 1.08 ± 0.068; (concentration: 4mM) 1.06 ± 0.091; (concentration: 6mM) 1.1 ± 0.071. The NP40-soluble protein abundance by setting is: (concentration: 8mM) 1.11 ± 0.022; (concentration: 10mM) 1.07 ± 0.047.

As to UniProt Q92574 and related entries, the NP40-soluble protein abundance (concentration: 0.1mM) came to 1.03 ± 0.097; the NP40-soluble protein abundance (concentration: 0.5mM) came out at 1.04 ± 0.038; the NP40-soluble protein abundance (concentration: 1mM) was determined as 1.07 ± 0.041; the NP40-soluble protein abundance (concentration: 2mM) was found to be 1.07 ± 0.072; the NP40-soluble protein abundance (concentration: 4mM) stood at 1.09 ± 0.07; the NP40-soluble protein abundance (concentration: 6mM) worked out at 1.08 ± 0.062. In addition, the NP40-soluble protein abundance was found to be 1.12 ± 0.14 (concentration: 8mM) and 1.08 ± 0.1 (concentration: 10mM).

Regarding UniProt Q92538 and related entries, the NP40-soluble protein abundance amounted to 1.04 ± 0.024 (concentration: 0.1mM); 1.06 ± 0.013 (concentration: 0.5mM); 1.02 ± 0.027 (concentration: 1mM); 1.04 ± 0.018 (concentration: 2mM); 1 ± 0.044 (concentration: 4mM); 1.01 ± 0.03 (concentration: 6mM). In addition, the NP40-soluble protein abundance runs as follows: (concentration: 8mM) 0.998 ± 0.051; (concentration: 10mM) 0.989 ± 0.017.

In the case of PNPLA2 (UniProt Q96AD5), the NP40-soluble protein abundance was 1.01 ± 0.038 (concentration: 0.1mM); 0.995 ± 0.099 (concentration: 0.5mM); 0.981 ± 0.03 (concentration: 1mM); 1.03 ± 0.047 (concentration: 2mM); 0.959 ± 0.092 (concentration: 4mM); 0.973 ± 0.15 (concentration: 6mM). The NP40-soluble protein abundance runs as follows: (concentration: 8mM) 0.956 ± 0.031; (concentration: 10mM) 0.9718 ± 0.0044.

Take UniProt Q96DF8: the NP40-soluble protein abundance reads like this: (concentration: 0.1mM) 0.982 ± 0.042; (concentration: 0.5mM) 0.979 ± 0.06; (concentration: 1mM) 1.1 ± 0.096; (concentration: 2mM) 1.01 ± 0.038; (concentration: 4mM) 1.06 ± 0.096; (concentration: 6mM) 1.04 ± 0.022. Besides, the NP40-soluble protein abundance (concentration: 8mM) was 1.07 ± 0.13 and the NP40-soluble protein abundance (concentration: 10mM) stood at 1.14 ± 0.064.

With UniProt Q8WWV3 and related entries, the NP40-soluble protein abundance worked out at 1.02 ± 0.042 (concentration: 0.1mM); 1.02 ± 0.056 (concentration: 0.5mM); 0.958 ± 0.03 (concentration: 1mM); 0.939 ± 0.018 (concentration: 2mM); 0.942 ± 0.007 (concentration: 4mM); 0.895 ± 0.028 (concentration: 6mM). In addition, the NP40-soluble protein abundance (concentration: 8mM) was determined as 0.922 ± 0.03 and the NP40-soluble protein abundance (concentration: 10mM) is 0.883 ± 0.061.

As to SPRYD4 (UniProt Q8WW59), the NP40-soluble protein abundance by setting is: (concentration: 0.1mM) 0.997 ± 0.087; (concentration: 0.5mM) 0.982 ± 0.034; (concentration: 1mM) 0.908 ± 0.029; (concentration: 2mM) 0.935 ± 0.068; (concentration: 4mM) 0.952 ± 0.067; (concentration: 6mM) 0.872 ± 0.031. In addition, the NP40-soluble protein abundance is, setting by setting: (concentration: 8mM) 0.891 ± 0.045; (concentration: 10mM) 0.8721 ± 0.0083.

Take UniProt Q8WVE0: the NP40-soluble protein abundance by setting is: (concentration: 0.1mM) 0.96 ± 0.05; (concentration: 0.5mM) 1.07 ± 0.034; (concentration: 1mM) 0.874 ± 0.048; (concentration: 2mM) 0.924 ± 0.1; (concentration: 4mM) 0.939 ± 0.042; (concentration: 6mM) 0.882 ± 0.034. Also, the NP40-soluble protein abundance turned out to be 0.866 ± 0.088 (concentration: 8mM) and 0.922 ± 0.07 (concentration: 10mM).

UniProt Q969P0 and related entries: the NP40-soluble protein abundance by setting is: (concentration: 0.1mM) 1.02 ± 0.066; (concentration: 0.5mM) 1 ± 0.048; (concentration: 1mM) 0.961 ± 0.07; (concentration: 2mM) 0.956 ± 0.058; (concentration: 4mM) 0.932 ± 0.069; (concentration: 6mM) 0.932 ± 0.049. Further, the NP40-soluble protein abundance runs as follows: (concentration: 8mM) 0.953 ± 0.053; (concentration: 10mM) 0.919 ± 0.077.

Turning to PPP1R13L (UniProt Q8WUF5), the NP40-soluble protein abundance came to 1.14 ± 0.17 (concentration: 0.1mM); 1.22 ± 0.2 (concentration: 0.5mM); 1.19 ± 0.25 (concentration: 1mM); 1.2 ± 0.17 (concentration: 2mM); 1.14 ± 0.082 (concentration: 4mM); 1.17 ± 0.14 (concentration: 6mM). The NP40-soluble protein abundance is, setting by setting: (concentration: 8mM) 1.2 ± 0.17; (concentration: 10mM) 1.14 ± 0.017.
